The target in data set [1] is T1, PTK7 protein (UniProt Q13308).
T1 sequence (looked up, limits assumed): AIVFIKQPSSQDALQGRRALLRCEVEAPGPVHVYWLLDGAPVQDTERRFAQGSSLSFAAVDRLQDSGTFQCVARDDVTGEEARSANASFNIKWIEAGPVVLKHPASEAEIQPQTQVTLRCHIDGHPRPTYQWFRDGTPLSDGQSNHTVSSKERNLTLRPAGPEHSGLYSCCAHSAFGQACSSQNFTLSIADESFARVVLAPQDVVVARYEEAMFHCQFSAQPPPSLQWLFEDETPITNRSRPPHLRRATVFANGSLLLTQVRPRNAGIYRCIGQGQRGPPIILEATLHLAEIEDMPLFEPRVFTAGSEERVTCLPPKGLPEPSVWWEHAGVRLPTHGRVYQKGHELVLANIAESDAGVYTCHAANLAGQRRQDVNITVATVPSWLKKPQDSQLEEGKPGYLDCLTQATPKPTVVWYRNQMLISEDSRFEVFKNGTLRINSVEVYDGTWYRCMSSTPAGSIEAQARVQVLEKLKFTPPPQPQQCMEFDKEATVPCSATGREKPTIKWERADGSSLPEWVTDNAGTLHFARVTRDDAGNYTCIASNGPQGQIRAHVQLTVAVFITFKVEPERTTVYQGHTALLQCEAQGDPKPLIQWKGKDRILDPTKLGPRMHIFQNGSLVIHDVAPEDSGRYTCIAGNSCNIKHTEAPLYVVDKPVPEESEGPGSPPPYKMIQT
The data set can be described thus: binding assay. Particulars: TSM flow injection on neutravidin/gold; aptamers immobilized in PBS (10 mM NaH2PO4, 1.8 mM KH2PO4, 137 mM NaCl, 2.7 mM KCl, pH 7.4); cells in PBS with DMEM; label: 5'-biotin; single-stranded DNA.

Data set [2] has as its target HER2 receptor on SK-BR-3 cells (UniProt P04626). The data set can be described thus: TSM acoustic sensor (QCM). Particulars: whole SK-BR-3 cells, 5e4 cells/mL, protein on the cell surface, label: 5'-biotin.
For data set [3], the target named is PTK7 receptor on MDA-MB-231 cells (UniProt Q13308). The data set can be described thus: TSM acoustic sensor (QCM). The note with it: whole MDA-MB-231 cells, 5e5 cells/mL (Figure S2), 0.5 uM aptamer, binding attributed to PTK7; protein on the cell surface; label: 5'-biotin; single-stranded ….
Data set [4] concerns the target HER2 protein (UniProt P04626). The data set can be described thus: binding assay. Particulars: TSM flow injection on neutravidin/gold; aptamers immobilized in PBS (10 mM NaH2PO4, 1.8 mM KH2PO4, 137 mM NaCl, 2.7 mM KCl, pH 7.4); cells in PBS with DMEM; label: 5'-biotin; single-stranded DNA.

The exact form of at least one protein or probe is not confirmed. For part of these data: Results from cells or extracts need not show a direct contact. For part of these data: Weaker means in comparison with the reference protein, sequence or condition of that experiment. For part of these data: At least one verdict was read from the data and is not stated in words by the source. For part of these data: Where a protein sequence is shown, tags need not be part of it.

In data set [1], “ATCTAACTGCTGCGCCGCCGGGAAAATACTGTACGGTTAGA [sgc8c]” came in with a Kd of 1 nM. The binding result in data set [2] (non-specific control, 0.5 uM aptamer, much lower response, single-stranded …) is “binds more weakly”; in data set [3] it was “binds”.
Take “AACCGCCCAAATCCCTAAGAGTCTGCACTTGTCATTTTGTATATGTATTTGGTTTTTGGCTCTCACAGACACACTACACACGCACA [HB5]”: in data set [2] (0.25 uM aptamer, single-stranded DNA), the binding result is recorded as “binds”.
In data set [4], “TCTAAAAGGATTCTTCCCAAGGGGATCCAATTCAAACAGC [HeA2_3]” yielded a Kd of 6.2 nM. Moreover, the binding result in data set [2] (0.5 uM aptamer, higher response than HB5, single-stranded DNA) is recorded as “binds”.

Source of the values: paper PMC6627288.
